{"source": "PubChem BioAssay AID504786 (Drosophila RNAi Screening Center, 2011)", "screen": "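Positive regulators of HIF-driven reporter output in Drosophila cells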 (primary screen)", "system": "Drosophila S2 cells with a stable HIF luciferase reporter", "knock-down reagent": "long dsRNA against Drosophila genes, about 0.2 µg dsRNA per well of a 384-well plate", "timing": "three days of knock-down, then 20 h of DFO before reading", "treatment": "desferrioxamine (DFO) at 100 µM, an iron chelator that mimics hypoxia, for 20 h", "measured": "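Firefly luciferase driven by the mouse ldh-a hypoxia-response element, measured after 20 h of 100 µM DFO; z-scores per plate, higher means more signal lost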", "scale": "z-score: higher = stronger loss of HIF reporter signal", "note": "The screen tested about 21,000 reagents; this is a random part of those with a known target gene and a result. 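Primary screen; positive scores mean lost reporter signal, so the sign may be inverted from the usual convention.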 Not all columns of the deposit are shown."}
{"Target gene":"CG13217 (GeneID 36180)","amplicon":"DRSC06339","z-score, replicate 1":-0.2}
{"Target gene":"CG9582 (GeneID 34230)","amplicon":"DRSC03267","z-score, replicate 1":-0.1}
{"Target gene":"Elp1 (GeneID 41399)","amplicon":"DRSC14250","z-score, replicate 1":-0.3}
{"Target gene":"CG10749 (GeneID 39470)","amplicon":"DRSC09798","z-score, replicate 1":-0.3}
{"Target gene":"Mct1 (GeneID 31198)","amplicon":"DRSC18681","z-score, replicate 1":-0.3}
{"Target gene":"Hrb87F (GeneID 48535)","amplicon":"DRSC16708","z-score, replicate 1":-0.4}
{"Target gene":"Ser12 (GeneID 33406)","amplicon":"DRSC00786","z-score, replicate 1":-0.2}
{"Target gene":"CG34166 (GeneID 5740596)","amplicon":"DRSC02482","z-score, replicate 1":-0.6}
{"Target gene":"Ncoa6 (GeneID 33761)","amplicon":"DRSC02353","z-score, replicate 1":2.1}
{"Target gene":"mah (GeneID 42988)","amplicon":"DRSC14645","z-score, replicate 1":-0.2}
{"Target gene":"CG30037 (GeneID 246409)","amplicon":"DRSC07305","z-score, replicate 1":-0.1}
{"Target gene":"CSN1a (GeneID 34857)","amplicon":"DRSC01951","z-score, replicate 1":-0.4}
{"Target gene":"bond (GeneID 42657)","amplicon":"DRSC16135","z-score, replicate 1":-0.2}
{"Target gene":"CG3226 (GeneID 31597)","amplicon":"DRSC18296","z-score, replicate 1":-0.2}
{"Target gene":"eater (GeneID 43262)","amplicon":"DRSC15969","z-score, replicate 1":-0.4}
{"Target gene":"Letm1 (GeneID 37912)","amplicon":"DRSC04476","z-score, replicate 1":1.9}
{"Target gene":"CAH3 (GeneID 31804)","amplicon":"DRSC17776","z-score, replicate 1":-0.2}
{"Target gene":"fbp (GeneID 35265)","amplicon":"DRSC02077","z-score, replicate 1":-0.3}
{"Target gene":"Lon (GeneID 40138)","amplicon":"DRSC11049","z-score, replicate 1":-0.2}
{"Target gene":"CG17999 (GeneID 37357)","amplicon":"DRSC04300","z-score, replicate 1":-0.3}
{"Target gene":"cN-IIIB (GeneID 37875)","amplicon":"DRSC04359","z-score, replicate 1":-0.2}
{"Target gene":"CG8726 (GeneID 35758)","amplicon":"DRSC07250","z-score, replicate 1":-0.3}
{"Target gene":"Lk6 (GeneID 44672)","amplicon":"DRSC12867","z-score, replicate 1":-0.6}
{"Target gene":"Lk6 (GeneID 44672)","amplicon":"DRSC16728","z-score, replicate 1":-0.4}
{"Target gene":"Gyc89Da (GeneID 42001)","amplicon":"DRSC15008","z-score, replicate 1":-0.3}
{"Target gene":"sky (GeneID 35359)","amplicon":"DRSC02383","z-score, replicate 1":-0.4}
{"Target gene":"sky (GeneID 35359)","amplicon":"DRSC03214","z-score, replicate 1":-0.5}
{"Target gene":"sky (GeneID 35359)","amplicon":"DRSC03215","z-score, replicate 1":-0.4}
